At least one compound was matched to its structure with a doubt left.
Biological target: BTK wildtype protein (Homo sapiens (Human), UniProt Q06187)
Assay: Kinact/KI determination for BTK protein inhibitors (Kobs)
Format: binding
Protocol: Test compounds were prepared as 10 mM stock solutions in DMSO (Fisher cat #BP231-100). Human recombinant BTK wildtype protein 393-659 or BTK C481S protein 393-659 was produced in house or purchased from Saromics Biostructures AB (Lund, Sweden). BTK protein was diluted to 1 μM in buffer (20 mM Hepes, pH 7.5, 150 mM NaCl, 1 mM MgCl2, 1 mM DTT). For testing BTK modification, compounds were diluted to 50× final test concentration in DMSO in 96-well storage plates. 1 μL of the diluted 50× compounds were added to appropriate wells in the PCR plate (Fisher cat #AB-0800). Increasing concentrations of compounds were added to separate wells, resulting in final assay compound concentrations of 3 μM, 10 μM, 30 μM and 100 μM. 49 μL of the stock protein solution was added to each well of the 96-well PCR plate. Reactions were mixed carefully. The plate was sealed well with aluminum plate seal and stored in a drawer at room temperature. […]
The extent of covalent modification of BTK proteins was determined by liquid chromatography electrospray mass spectrometry analysis of the intact proteins using a Thermo Q-Exactive Plus mass spectrometer. […] The recorded protein mass spectrum was deconvoluted from the raw data file using Protein Deconvolution v4.0 (Thermo). […]

By UniProt entry, the sequences of proteins in these tests, tags left out. Residues count along the entry.
UniProt Q06187, 393-659: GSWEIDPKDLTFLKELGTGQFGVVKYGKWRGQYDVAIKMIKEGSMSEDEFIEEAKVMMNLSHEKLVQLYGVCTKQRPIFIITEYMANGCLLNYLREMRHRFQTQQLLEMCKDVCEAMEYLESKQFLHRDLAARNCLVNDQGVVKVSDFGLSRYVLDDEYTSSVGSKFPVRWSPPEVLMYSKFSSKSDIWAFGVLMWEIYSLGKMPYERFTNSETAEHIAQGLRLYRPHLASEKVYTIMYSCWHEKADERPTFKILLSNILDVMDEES

Row | SMILES | BTK (wt) Kobs
1 | COc1ccc(F)cc1C(=O)NCc1ccc(-c2nn(C[C@H](C3CC3)N(C)C(=O)n3cncn3)c3ncnc(N)c23)cc1 [Compound 132, (S)-N-(2-(4-amino-3-(4-((5-fluoro-2-methoxybenzamido)methyl)phenyl)-1H-pyrazolo[3,4-d]pyrimidin-1-yl)-1-cyclopropylethyl)-N-methyl-1H-1,2,4-triazole-1-carboxamide] | 132, 134, 136, 137, 138, 140, 150, 152, 153, 154, 155, M^−1 · s^−1
2 | COc1ccc(F)cc1C(=O)NCc1ccc(-c2nn(-c3ccc(CN(C)C(=O)n4cncn4)cc3)c3ncnc(N)c23)cc1 [Compound 138, N-(4-(4-amino-3-(4-((5-fluoro-2-methoxybenzamido)methyl)phenyl)-1H-pyrazolo[3,4-d]pyrimidin-1-yl)benzyl)-N-methyl-1H-1,2,4-triazole-1-carboxamide] | 132, 134, 136, 137, 138, 140, 150, 152, 153, 154, 155, M^−1 · s^−1
